Data reported in PubChem BioAssay AID1347075 (National Center for Advancing Translational Sciences (NCATS), 2019).
Hit rate of the full screen: of about 400,000 compounds, about 5,500 (1.4%) were called active. The shares of active, inactive and inconclusive entries below differ from those in the screen. Calls come from the whole dose curve; as a rule, active = well fitted cell-killing curve with a large enough effect; inconclusive = small, poorly fitted or top-dose-only effect, or effect the other way; inactive = flat fitted curve, though single readings scatter. Where the call is inconclusive, the potency comes from a doubtful curve fit.

Test: qHTS assay for MDR1-selective chemotherapeutics: Primary screen using the parental adenocarcinoma cell KB-3-1; note: nearly all actives have a fitted effect of over 60% in size
Conditions: KB-3-1 viability, CellTiter-Glo ATP luminescence, 72 h; activity change, negative = cytotoxic: at 46.1 µM (top of the series)
Summary of the method: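 Multi-concentration cytotoxicity screen in KB-3-1 cells grown in DMEM lacking phenol red with 10% FBS. After 72 h at 37 °C with compound, ATP-dependent luminescence was recorded.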
% is set by controls: 0 for no effect and ±100 for the full control effect; potency is the fitted concentration of half-maximal effect.

Structure (SMILES) | Potency | activity change, negative = cytotoxic
Cc1c2cnn(CC(=O)NCc3ccc(F)cc3)c(=O)c2c(C)n1Cc1cccc(Cl)c1 | inconclusive: 20.6 µM [cytotoxic, single point] | 
CCOCCCN(Cc1ccco1)S(=O)(=O)c1cc2c(cc1Cl)NC(=O)CO2 |  | inactive: -5.34%
Cc1ccc(N(C(=O)c2csnn2)C(C(=O)NC2CCCC2)c2cccnc2)c(C)c1 (stereo not drawn) | inconclusive: 25.9 µM [cytotoxic, partial curve, poor fit] | 
COc1ccc(OCCN2CCN(S(=O)(=O)c3ccccc3C#N)CC2)cc1 | inconclusive: 9.2 µM [cytotoxic, partial curve, poor fit] | 
O=C(CCCOc1ccccc1)Nc1ncccn1 | inconclusive: 16.4 µM [rising, partial curve, poor fit] | 
CCc1cccc2sc(N3CCN(C(=O)c4ccc([N+](=O)[O-])o4)CC3)nc12 | inconclusive: 20.6 µM [cytotoxic, single point] | 
O=Cc1cc([N+](=O)[O-])ccc1N1CCN(Cc2ccc3c(c2)OCO3)CC1 | inconclusive: 9.2 µM [cytotoxic, partial curve] | 
CC(Oc1ccc(F)cc1)C(=O)Nc1sc2c(c1C(=O)NCc1cccnc1)CCCC2 (stereo not drawn) | inconclusive: 29.1 µM [cytotoxic, single point] | 
CCC(Sc1nnc2c(n1)[nH]c1ccccc12)C(=O)Nc1nnc(C(C)C)s1 (stereo not drawn) |  | inactive: 3.02%
COc1ccc(/C=C/C(=O)NC(=S)NNC(=O)c2cccs2)cc1 | inconclusive: 29.1 µM [cytotoxic, single point] | 
Cc1[nH]c2ccccc2c1C(=O)/C=C\c1ccccc1Cl | inconclusive: 18.4 µM [cytotoxic, single point] | 
O=C(Nc1cccc(Cl)c1)C1C2CCC3C(CCC21)C3(Cl)Cl (stereo not drawn) | inconclusive: 29.1 µM [cytotoxic, single point] | 
O=C(NCC(c1ccco1)N1CCN(c2ccc(F)cc2)CC1)C1CCCCC1 (stereo not drawn) |  | inactive: 8.79%
Cc1ncsc1C(=O)N1N=C2/C(=C/c3ccc(N4CCOCC4)cc3)CCCC2C1c1ccc(N2CCOCC2)cc1 (stereo not drawn) |  | inactive: 4.66%
Cc1ccc2nc(-c3ccc(NC(=O)CSc4nccc(=O)[nH]4)cc3)sc2c1 |  | inactive: 1.02%
Cc1ccc(SCCNC(=O)c2ccc(C)c(S(=O)(=O)Nc3cccc(C)c3)c2)cc1 |  | inactive: -9.95%
Cn1cnc2c(oc3ccccc32)c1=O |  | inactive: -2.16%
C=CCC[C@H](Cc1ccc(F)cc1)C(=O)OC[C@H](Cc1c[nH]c2ccccc12)NC(=O)[C@@H](CC=C)CC(=O)N[C@H](CO)Cc1ccccc1 | inconclusive: 29.1 µM [cytotoxic, single point] | 
CC(C)(C)OC(=O)N1CCC(NC(=O)c2[nH]cnc2C(=O)N[C@@H](Cc2ccccc2)C(=O)OCc2ccccc2)CC1 | inconclusive: 23.1 µM [cytotoxic, single point] | 
O=C(CCNC(=O)c1ccco1)Nc1nc2ccccc2s1 | inconclusive: 14.6 µM [rising, partial curve] | 
Cc1ccc(C(C)C)c(OCCSc2nc(-c3ccccc3F)nc3cc(=O)[nH]n23)c1 | inconclusive: 29.1 µM [cytotoxic, single point] | 
COc1ccc(-c2n[nH]c(=S)n2/N=C/C=C/c2ccccc2OC)cc1 | active: 10.3 µM | 

Reformatted in CSV form: entries from further up.
Structure (SMILES),Potency,"activity change, negative = cytotoxic"
COc1ccc(OCCN2CCN(S(=O)(=O)c3ccccc3C#N)CC2)cc1,"inconclusive: 9.2 µM [cytotoxic, partial curve, poor fit]",
O=C(Nc1cccc(Cl)c1)C1C2CCC3C(CCC21)C3(Cl)Cl (stereo not drawn),"inconclusive: 29.1 µM [cytotoxic, single point]",

Continued.

Structure (SMILES) | Potency | activity change, negative = cytotoxic
Cn1c(=O)c2c(nc(SCc3ccccc3)n2Cc2ccc(Cl)cc2)n(C)c1=O |  | inactive: 0%
CCc1nnc(NC(=O)c2ccc(Cl)c(S(=O)(=O)N3CCc4ccccc4C3)c2)s1 |  | inactive: -12.8%
CCOC(=O)N1CCN(C(=O)c2cc(COc3ccc4ncccc4c3)on2)CC1 | inconclusive: 5.8 µM [cytotoxic, full curve, poor fit] | 
Cc1ccc(-c2cn(-c3ccc(SC(F)F)cc3)c3[n+]2CCC3)cc1 | active: 2.06 µM | 
CCCCN1CC(O)=C(c2nc3ccccc3[nH]2)C1=N |  | inactive: -16.9%
O=C(CN1CCN(Cc2ccc(Cl)cc2)CC1)N/N=C/c1ccccc1F |  | inactive: -13.8%
CCCCCCCCN1CC(Cc2cc3ccccc3c3ccccc23)N(c2ccccc2)c2ccccc2C1=O (stereo not drawn) | inconclusive: 18.4 µM [cytotoxic, single point] | 
COc1cccc(/C=N/Nc2ccnc(=O)[nH]2)c1O | active: 4.61 µM | 
CN(CCC1CCOCC1)C(=O)C1CCC(=O)N(CCc2ccc(Cl)cc2)C1 (stereo not drawn) | inconclusive: 14.6 µM [rising, partial curve] | 
CC(=O)N1Cc2cc(C(=O)NCC(F)(F)F)nc(-c3cccc(-c4cccnc4)c3)c2[C@@H]1CCO | active: 4.11 µM | 
COc1ccc(C=NNc2ccc([N+](=O)[O-])cc2S(=O)(=O)Nc2ccccc2C(=O)O)cc1OC |  | inactive: -24.5%
Cc1oc(-c2cccc(Cl)c2)nc1CN1CCCC(C(=O)NC(C)c2ccc3c(c2)OCCO3)C1 (stereo not drawn) | inconclusive: 14.6 µM [cytotoxic, partial curve, poor fit] | 
Cc1ccc(C)c(NC(=O)/C(C#N)=C/c2cn(CC(=O)NCc3ccco3)c3ccccc23)c1 |  | inactive: 0.698%
CCc1nnc(NC(=O)CSc2nc(-c3ccccc3)cc(-c3ccc(F)cc3)c2C#N)s1 | inconclusive: 29.1 µM [cytotoxic, single point] | 
COc1cccc(N2CCN(C(=O)c3cc4c(=O)oc5ccc(C)cc5c4s3)CC2)c1 | inconclusive: 0.206 µM [rising, full curve] | 
Cc1cccc(NC(=O)CSc2nc(C)c(CC(=O)c3ccc(Br)cc3)c(C)c2C#N)c1C | inconclusive: 29.1 µM [cytotoxic, single point] | 
CCCC(=O)N1CCN(c2nc3ccc(Br)cc3s2)CC1 | inconclusive: 13 µM [cytotoxic, partial curve, poor fit] | 
O=C(Nc1ccncc1)c1sc2ccccc2c1Cl |  | inactive: -27.4%
CC(OC(=O)c1nc(Cl)ccc1Cl)C(=O)Nc1ccc2c(c1)OCCO2 (stereo not drawn) |  | inactive: 3.55%
COC(=O)NNC(=O)COc1ccc2ccccc2c1Br | inconclusive: 0.082 µM [rising, full curve] | 
COc1ccc(OC)c(/C(C)=N\NC(=O)c2cc3cc(Cl)ccc3n2C)c1 | inconclusive: 18.4 µM [cytotoxic, single point] | 
